Data as given in PubChem BioAssay AID493014 (National Center for Advancing Translational Sciences (NCATS), 2011).
Several values for one entry are separate records, joined by “and”; a condition that tells them apart may be missing. Equal values may be shown once. Hit rate of the full screen: of about 340,000 compounds, about 170 (0.05%) were called active. This list was built around the results that the source calls inconclusive (neither active nor inactive); the mix of calls is not that of the screen. Calls follow the shape of the dose curve; as a rule, active = well fitted inhibition curve with a large enough effect in the signal ratio, with a control signal flat (not every such curve was filed as active); inconclusive = small, poorly fitted or top-dose-only effect, or effect the other way, or a change in a side signal; inactive = flat fitted curve, though single readings scatter; the % refers to the signal ratio. Potencies of inconclusive entries are doubtful fits and often do not repeat.

Experiment: qHTS Assay to Find Inhibitors of Chronic Active B-Cell Receptor Signaling;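 as to activity change, negative = inhibition: plate controls were basal doxycycline-induced cells for no effect and cells given 10 µM MG132 for full effect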
Conditions: ABC-DLBCL IkBa-CBG/CBR reporter, luminescence ratio (green luciferase fused to IkBa over red control in TMD8 lymphoma cells), 4 h; activity change, negative = inhibition: at 46.1 µM (top of the series) unless noted
In short: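 TMD8 human ABC-DLBCL cells with doxycycline-inducible IκBα–green luciferase fusion and unfused red luciferase, in 0.5% FBS medium; compounds up to 46 uM, 4 h at 37C. Green/red luminescence ratio, filter-overlap corrected, fitted to concentration-response curves.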
Potency is read from the fitted curve at half-maximal effect.

Question: With `O=S(=O)(Nc1ccccc1)c1ccc(-c2csnn2)cc1` as the compound, how does the activity change, negative = inhibition read?
Answer: The activity change, negative = inhibition was “inactive”.

Question: Which activity change, negative = inhibition does the source give for `Cc1cc([N+](=O)[O-])nn1CCCC(=O)Nc1cc(Oc2ccccc2)cc([N+](=O)[O-])c1` here?
Answer: The activity change, negative = inhibition was inconclusive: 6.35%.

Question: Which activity change, negative = inhibition does the source give for `CCN(c1ccccc1)S(=O)(=O)c1cccc(C(=O)NCc2ccccn2)c1` here?
Answer: Its activity change, negative = inhibition is “inactive”.

Question: With `CCOC(=O)c1cc(-c2ccc(OC(F)F)cc2)nc2c1c(=O)[nH]c(=O)n2C` as the compound, how does the activity change, negative = inhibition read?
Answer: The activity change, negative = inhibition was inconclusive: -0.704%.

Question: Which activity change, negative = inhibition does the source give for `CCn1c(CNc2nc3ccccc3n2C(C)C)nc2ccccc21` here?
Answer: The activity change, negative = inhibition was “inactive”.

Question: With `COc1ccc2oc(-c3ccc(C)c(NC(=O)c4ccc(N5CCOCC5)c([N+](=O)[O-])c4)c3)nc2c1` as the compound, how does the activity change, negative = inhibition read?
Answer: Its activity change, negative = inhibition is inconclusive: 19.1%.

Question: Which activity change, negative = inhibition does the source give for `C/C(=N/NC(=O)Cc1cccn1C)c1ccccc1` here?
Answer: Its activity change, negative = inhibition is “inactive”.

Question: Which activity change, negative = inhibition does the source give for `CCOC(=O)C1=C(C)NC(=S)N(C(C)=O)C1c1ccc(OC)c(OC)c1` (stereo unspecified) here?
Answer: The activity change, negative = inhibition was inconclusive: 4%.

Question: Which Potency does the source give for `COc1cc(-n2c(=O)c3ccccc3n(Cc3cccc(F)c3)c2=O)cc(OC)c1OC` here?
Answer: The Potency was inconclusive: 14.1 µM [falling, single point].

Question: Which activity change, negative = inhibition does the source give for `CCOC(=O)C1=NOC(COc2ccccc2C=O)C1` (stereo unspecified) here?
Answer: Its activity change, negative = inhibition is inconclusive: -13.7%.

Question: For `COc1ccccc1CCC(=O)Nc1ccc(C)cc1Cl`, which Potency is on record?
Answer: The Potency was inconclusive: 22.4 µM [falling, partial curve].

Question: For `COc1ccc(Nc2nc(N)nc(CN3CCc4ccccc4C3)n2)cc1`, which Potency is on record?
Answer: Its Potency is inconclusive: 35.5 µM [falling, single point].

Question: For `COc1cccc(-c2ccc3ncnc(NCc4cccc(C)c4)c3c2)c1`, which activity change, negative = inhibition is on record?
Answer: Its activity change, negative = inhibition is inconclusive: -12.1% and inconclusive: 0.921%.

Question: Which activity change, negative = inhibition does the source give for `CCc1noc(C)c1C(=O)Nc1nc(-c2ccc(Cl)cc2Cl)c(C)s1` here?
Answer: The activity change, negative = inhibition was inconclusive: -18.9%.

Question: Which activity change, negative = inhibition does the source give for `Cc1nc(=S)c2ccccc2[nH]1` here?
Answer: The activity change, negative = inhibition was inconclusive: -13.8%.

Question: With `O=C(COC(=O)c1cccnc1)Nc1ccc(F)cc1` as the compound, how does the Potency read?
Answer: The Potency was inconclusive: 20.6 µM [falling, single point].

Question: For `COc1ccc2c(c1)OC[C@H]1[C@H]2N2C(=O)c3cc(C)ccc3NC(=O)[C@@]2(C)[C@H]1c1ccccc1`, which activity change, negative = inhibition is on record?
Answer: The activity change, negative = inhibition was inconclusive: 4.21%.

Question: With `O=C1/C(=C/c2ccco2)CCc2ccccc21` as the compound, how does the activity change, negative = inhibition read?
Answer: Its activity change, negative = inhibition is “inactive”.

Question: Which Potency does the source give for `Cc1ccc(-n2c(SCC(N)=O)nc3c(c2=O)C2(CCCC2)Cc2ccccc2-3)cc1` here?
Answer: Its Potency is inconclusive: 20.6 µM [rising, partial curve, poor fit].

Question: With `COc1ccc(C(C)=O)cc1CSc1ccc(S(=O)(=O)N2CCCCC2)cn1` as the compound, how does the activity change, negative = inhibition read?
Answer: The activity change, negative = inhibition was “inactive”.

Question: For `CCOc1ccc(S(=O)(=O)N2CCC(C(=O)NCc3ccccn3)CC2)cc1Cl`, which activity change, negative = inhibition is on record?
Answer: Its activity change, negative = inhibition is inconclusive: -9.11%.

Question: For `Cn1c(=O)c2c(nc(N3CCOCC3)n2C/C=C/c2ccccc2)n(C)c1=O`, which activity change, negative = inhibition is on record?
Answer: Its activity change, negative = inhibition is “inactive”.

Question: For `CCn1c(SCC(=O)NCc2ccc3c(c2)OCO3)nnc1-c1cccs1`, which activity change, negative = inhibition is on record?
Answer: The activity change, negative = inhibition was inconclusive: 7.95%.

Question: For `C=C(C)c1cccc(C(C)(C)NC(=O)NC(c2ccccc2)c2ccc(OC)cc2)c1` (stereo unspecified), which activity change, negative = inhibition is on record?
Answer: Its activity change, negative = inhibition is inconclusive: 7.76%.

Question: Which activity change, negative = inhibition does the source give for `Cc1nnc(SCCC(=O)Nc2ccc(Cl)cc2)o1` here?
Answer: Its activity change, negative = inhibition is inconclusive: -1.28%.

Question: With `Cc1ccc(S(=O)(=O)N(C)c2cc(S(=O)(=O)N3CCC(C)CC3)c(C)cc2C)cc1` as the compound, how does the Potency read?
Answer: Its Potency is inconclusive: 2.82 µM [rising, partial curve, poor fit].

Question: With `CCOC(=O)c1c(-c2ccc(-c3ccccc3)cc2)csc1NC(=O)CCN1CCOCC1` as the compound, how does the activity change, negative = inhibition read?
Answer: Its activity change, negative = inhibition is inconclusive: 1.79%.

Question: With `Cc1cc2c(cc1C)NC(=O)CC(C(F)(F)C(F)(F)C(F)(F)F)=N2` as the compound, how does the activity change, negative = inhibition read?
Answer: The activity change, negative = inhibition was inconclusive: -1.98%.

Question: For `Cc1cccc(Nc2nnc(SCC(=O)Nc3cccc(S(=O)(=O)N4CCCCC4)c3)s2)c1`, which activity change, negative = inhibition is on record?
Answer: The activity change, negative = inhibition was inconclusive: -16.8%.

Question: For `O=C(N/N=C/c1ccc(N2CCOCC2)cc1)c1ccncc1`, which Potency is on record?
Answer: Its Potency is inconclusive: 20.6 µM [falling, partial curve, poor fit].

Question: For `C=C(C)Cn1c(SCC(=O)N/N=C/c2ccccc2)nc2ccccc2c1=O`, which activity change, negative = inhibition is on record?
Answer: Its activity change, negative = inhibition is “inactive”.

Question: For `CN(C)/C=C/C(=O)c1ccc(Cl)cc1Cl`, which activity change, negative = inhibition is on record?
Answer: The activity change, negative = inhibition was inconclusive: 3.24%.

Question: With `O=C(COc1ccc2c3c(c(=O)oc2c1)CCC3)NC(Cc1ccc(Cl)cc1)C(=O)O` (stereo unspecified) as the compound, how does the Potency read?
Answer: Its Potency is inconclusive: 0.631 µM [rising, full curve, poor fit].

Question: For `O=C(NCC1CCCO1)c1ccc2[nH]c3c(c2c1)CCCC3` (stereo unspecified), which activity change, negative = inhibition is on record?
Answer: The activity change, negative = inhibition was inconclusive: 2.06%.

Question: With `COc1cc(OC)cc(-c2sc3ccc(OC)cc3c2C#CC2(N)CCCCC2)c1` as the compound, how does the activity change, negative = inhibition read?
Answer: The activity change, negative = inhibition was “inactive”.

Question: Which activity change, negative = inhibition does the source give for `O=C(CCc1nc2ccccc2c(=O)[nH]1)OCc1ccc(-c2ccccc2)cc1` here?
Answer: The activity change, negative = inhibition was “inactive”.

Question: For `COC(=O)c1ccc(C(=O)NN)cc1`, which Potency is on record?
Answer: Its Potency is inconclusive: 12.6 µM [falling, partial curve].

Question: With `CCN1CCN(CCn2c(=S)[nH]c3cc4c(cc3c2=O)OCO4)CC1` as the compound, how does the activity change, negative = inhibition read?
Answer: The activity change, negative = inhibition was inconclusive: -26%.

Question: With `O=C1CN(C(=O)c2ccc(Br)o2)C(c2ccc(F)cc2)c2cc(Cl)ccc2N1` (stereo unspecified) as the compound, how does the activity change, negative = inhibition read?
Answer: The activity change, negative = inhibition was inconclusive: 0.378%.

Question: Which Potency does the source give for `N#CC(C(=O)C1CCCCC1)c1nc2ccccc2[nH]1` (stereo unspecified) here?
Answer: Its Potency is inconclusive: 18.4 µM [falling, single point].

Question: For `COc1ccc2cc(CO)c3cc(OC)c(OC)cc3c2c1`, which activity change, negative = inhibition is on record?
Answer: Its activity change, negative = inhibition is inconclusive: -20.5%.

Question: With `CCS(=O)(=O)N1CCN(c2cnn(-c3ccccc3)c(=O)c2Cl)CC1` as the compound, how does the activity change, negative = inhibition read?
Answer: Its activity change, negative = inhibition is inconclusive: 1.87%.

Question: For `COc1ccc(C(=O)N/N=C(\C)c2ccccn2)cc1OC`, which Potency is on record?
Answer: The Potency was inconclusive: 22.4 µM [falling, single point].

Question: For `COc1ccc(C(=O)c2nc3c(n2O)CCCC3)cc1OC`, which activity change, negative = inhibition is on record?
Answer: The activity change, negative = inhibition was “inactive”.

Question: Which Potency does the source give for `Cc1cccc(CSc2ccc3nnc(-c4ccccn4)n3n2)c1` here?
Answer: Its Potency is inconclusive: 10 µM [falling, partial curve].

Question: With `CC1=C(CC/C(C)=N/NC(N)=S)C(C)(C)CCC1` as the compound, how does the Potency read?
Answer: The Potency was inconclusive: 16.4 µM [falling, partial curve, poor fit].

Question: With `Cc1ccccc1NCC(=O)N/N=C/C(Br)=C/c1ccccc1` as the compound, how does the activity change, negative = inhibition read?
Answer: Its activity change, negative = inhibition is inconclusive: 13.3%.

Question: Which activity change, negative = inhibition does the source give for `COc1cccc(N/C(SC)=C(/C#N)C(=O)NCc2cccs2)c1` here?
Answer: The activity change, negative = inhibition was inconclusive: 6.43%.

Question: Which activity change, negative = inhibition does the source give for `S=c1[nH]ncn1/N=C/c1ccccc1` here?
Answer: The activity change, negative = inhibition was “inactive”.

Question: For `O=C(Nc1ccc2c(c1)nc1n2CCN(Cc2ccccc2)C1)c1cccs1`, which Potency is on record?
Answer: Its Potency is inconclusive: 29.1 µM [falling, single point].

Question: For `COc1ccccc1C(CNC(=O)c1cccc(S(=O)(=O)Nc2ccc(C)cc2)c1)N1CCCC1` (stereo unspecified), which Potency is on record?
Answer: The Potency was inconclusive: 18.4 µM [falling, single point].
